Structures can show the parent of a compound that is named as a salt. The list shows a part of the results. Hit calls seldom repeat between salt and free forms of one compound.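 In K562 cells expressing nanoluciferase-fused kinases, luminescence was recorded at 4 h intervals between 2 and 18 h, normalized as percent of control with DMSO at 100% and a positive control at 0%. A significant (2 sigma) signal drop marks a time point as decreased. The authors' rule for a hit is not shown and takes in more than the number of time points.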
Key:
Test in all cases: kinase-Nluc reporter destabilization hit call (1 = scored as downregulated) (binary); higher = compound decreases kinase abundance
Details in all cases: K562; 2-18 h
BRAF_V600E = tested on: BRAF_V600E
BTK = BTK (UniProt Q06187)
CAMK2A = CAMK2A (UniProt Q9UQM7)
CAMK2G = CAMK2G (UniProt Q13555)
CDK10 = CDK10 (UniProt Q15131)
CDK2 = CDK2 (UniProt P24941)
CDK3 = CDK3 (UniProt Q00526)
CDK4 = CDK4 (UniProt P11802)
CDK5 = CDK5 (UniProt Q00535)
CDK6 = CDK6 (UniProt Q00534)

By UniProt entry, the sequences of proteins in these tests, tags left out. Where a name states a change or a piece, a line headed by the entry shows the natural chain unless it says otherwise.
UniProt Q06187: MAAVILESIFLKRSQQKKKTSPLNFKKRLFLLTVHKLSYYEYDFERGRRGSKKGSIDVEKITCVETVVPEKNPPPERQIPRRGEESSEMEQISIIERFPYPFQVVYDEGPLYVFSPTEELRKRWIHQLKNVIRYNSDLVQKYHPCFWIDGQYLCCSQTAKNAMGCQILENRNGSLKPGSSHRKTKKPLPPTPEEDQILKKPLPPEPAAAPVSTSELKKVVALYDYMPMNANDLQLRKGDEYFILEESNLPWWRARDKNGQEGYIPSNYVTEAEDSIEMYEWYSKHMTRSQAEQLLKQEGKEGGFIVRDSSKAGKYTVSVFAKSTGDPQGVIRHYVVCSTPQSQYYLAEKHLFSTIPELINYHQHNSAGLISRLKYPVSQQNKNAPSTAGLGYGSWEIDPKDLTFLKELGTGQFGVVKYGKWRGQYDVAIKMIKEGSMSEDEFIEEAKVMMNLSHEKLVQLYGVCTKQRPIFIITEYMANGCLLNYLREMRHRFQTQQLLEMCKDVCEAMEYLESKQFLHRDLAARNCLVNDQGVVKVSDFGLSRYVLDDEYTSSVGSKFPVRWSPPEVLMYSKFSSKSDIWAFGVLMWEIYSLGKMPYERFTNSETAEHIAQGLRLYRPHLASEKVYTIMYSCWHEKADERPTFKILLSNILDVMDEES
UniProt Q9UQM7, whole entry: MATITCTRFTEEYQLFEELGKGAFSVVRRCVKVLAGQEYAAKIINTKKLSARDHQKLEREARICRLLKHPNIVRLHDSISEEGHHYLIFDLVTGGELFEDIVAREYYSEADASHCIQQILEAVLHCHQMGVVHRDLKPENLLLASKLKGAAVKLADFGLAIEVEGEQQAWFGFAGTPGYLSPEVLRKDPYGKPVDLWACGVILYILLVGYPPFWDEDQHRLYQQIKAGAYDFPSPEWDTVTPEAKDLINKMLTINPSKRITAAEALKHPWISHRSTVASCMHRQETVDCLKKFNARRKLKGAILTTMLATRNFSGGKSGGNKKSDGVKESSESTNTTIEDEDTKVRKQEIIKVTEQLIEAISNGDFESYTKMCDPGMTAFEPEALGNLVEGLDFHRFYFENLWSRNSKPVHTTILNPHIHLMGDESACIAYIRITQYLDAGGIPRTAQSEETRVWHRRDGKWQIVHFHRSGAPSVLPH
UniProt Q13555: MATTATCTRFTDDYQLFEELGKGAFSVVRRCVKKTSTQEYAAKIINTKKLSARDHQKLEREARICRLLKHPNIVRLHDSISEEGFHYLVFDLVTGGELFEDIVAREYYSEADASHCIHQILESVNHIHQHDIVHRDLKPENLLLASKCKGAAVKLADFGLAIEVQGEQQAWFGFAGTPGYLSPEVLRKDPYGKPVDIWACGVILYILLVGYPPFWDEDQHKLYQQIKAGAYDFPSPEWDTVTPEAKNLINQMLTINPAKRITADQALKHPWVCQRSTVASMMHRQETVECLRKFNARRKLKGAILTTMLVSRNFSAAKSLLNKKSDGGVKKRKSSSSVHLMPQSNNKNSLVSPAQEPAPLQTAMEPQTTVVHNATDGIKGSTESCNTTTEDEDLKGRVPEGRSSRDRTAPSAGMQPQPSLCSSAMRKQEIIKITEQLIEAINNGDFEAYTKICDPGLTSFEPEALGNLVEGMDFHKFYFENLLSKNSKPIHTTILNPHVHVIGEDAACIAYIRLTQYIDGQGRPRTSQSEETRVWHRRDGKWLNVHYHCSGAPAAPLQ
UniProt Q15131: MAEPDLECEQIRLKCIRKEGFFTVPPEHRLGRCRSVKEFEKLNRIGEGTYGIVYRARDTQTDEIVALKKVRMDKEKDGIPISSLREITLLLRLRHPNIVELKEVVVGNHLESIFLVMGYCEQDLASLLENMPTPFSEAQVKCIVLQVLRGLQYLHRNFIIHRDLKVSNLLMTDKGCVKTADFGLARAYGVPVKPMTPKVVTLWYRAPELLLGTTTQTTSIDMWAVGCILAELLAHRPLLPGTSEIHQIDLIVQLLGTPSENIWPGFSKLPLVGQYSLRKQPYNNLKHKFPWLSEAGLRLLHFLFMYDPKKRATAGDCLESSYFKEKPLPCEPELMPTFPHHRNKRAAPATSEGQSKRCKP
UniProt Q00526: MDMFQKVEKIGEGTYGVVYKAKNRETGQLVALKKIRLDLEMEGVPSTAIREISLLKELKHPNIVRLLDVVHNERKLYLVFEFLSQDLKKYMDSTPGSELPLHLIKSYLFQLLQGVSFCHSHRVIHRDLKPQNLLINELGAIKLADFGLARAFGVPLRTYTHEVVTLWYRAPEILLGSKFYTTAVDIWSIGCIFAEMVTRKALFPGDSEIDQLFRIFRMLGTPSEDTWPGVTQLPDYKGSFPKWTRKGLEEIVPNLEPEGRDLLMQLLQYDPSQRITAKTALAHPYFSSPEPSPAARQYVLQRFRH
UniProt P11802: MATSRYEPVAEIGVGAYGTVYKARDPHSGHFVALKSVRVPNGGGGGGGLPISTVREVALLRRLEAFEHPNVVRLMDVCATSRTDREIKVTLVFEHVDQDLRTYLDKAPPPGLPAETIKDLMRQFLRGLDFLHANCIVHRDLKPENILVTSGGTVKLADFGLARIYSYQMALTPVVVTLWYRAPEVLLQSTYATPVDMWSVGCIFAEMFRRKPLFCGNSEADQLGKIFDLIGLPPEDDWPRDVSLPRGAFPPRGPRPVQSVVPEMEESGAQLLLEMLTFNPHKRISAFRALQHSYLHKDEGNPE
UniProt Q00535, whole entry, looked up: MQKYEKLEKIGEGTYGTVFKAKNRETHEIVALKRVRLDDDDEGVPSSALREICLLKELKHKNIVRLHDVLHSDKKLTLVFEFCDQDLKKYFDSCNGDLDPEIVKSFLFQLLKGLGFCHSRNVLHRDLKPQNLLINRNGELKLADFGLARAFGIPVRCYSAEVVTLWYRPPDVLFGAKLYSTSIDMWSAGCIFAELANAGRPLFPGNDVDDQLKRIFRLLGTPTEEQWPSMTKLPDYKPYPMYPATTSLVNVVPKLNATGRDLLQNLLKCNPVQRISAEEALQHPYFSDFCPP
UniProt Q00534, whole entry: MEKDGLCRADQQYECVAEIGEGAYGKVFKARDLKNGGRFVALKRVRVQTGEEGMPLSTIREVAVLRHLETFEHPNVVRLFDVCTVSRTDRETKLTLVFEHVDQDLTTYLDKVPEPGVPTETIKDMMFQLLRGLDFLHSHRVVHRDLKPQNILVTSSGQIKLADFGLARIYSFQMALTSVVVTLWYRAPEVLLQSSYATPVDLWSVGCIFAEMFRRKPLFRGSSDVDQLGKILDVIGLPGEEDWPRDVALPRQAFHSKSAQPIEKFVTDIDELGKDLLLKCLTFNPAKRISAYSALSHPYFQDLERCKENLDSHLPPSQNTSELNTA

| Structure (SMILES) | kinase-Nluc reporter destabilization hit call (BRAF_V600E) | kinase-Nluc reporter destabilization hit call (BTK) | kinase-Nluc reporter destabilization hit call (CAMK2A) | kinase-Nluc reporter destabilization hit call (CAMK2G) | kinase-Nluc reporter destabilization hit call (CDK10) | kinase-Nluc reporter destabilization hit call (CDK2) | kinase-Nluc reporter destabilization hit call (CDK3) | kinase-Nluc reporter destabilization hit call (CDK4) | kinase-Nluc reporter destabilization hit call (CDK5) | kinase-Nluc reporter destabilization hit call (CDK6) |
| --- | --- | --- | --- | --- | --- | --- | --- | --- | --- | --- |
| CNC(=O)c1c(C)oc2cc(Oc3ncnc4cc(OC)c(OC)cc34)ccc12 [Fruquintinib] (10 µM) | inactive: 0 | inactive: 0 | inactive: 0 | inactive: 0 | inactive: 0 | inactive: 0 | inactive: 0 | inactive: 0 | inactive: 0 | inactive: 0 |
| CC[C@H](C)[C@H](NC(=O)[C@H](CCCCN)NC(=O)[C@H](CC(C)C)NC(=O)[C@@H]1CCCN1C(=O)[C@H](CCC(=O)O)NC(=O)[C@H](Cc1ccc(O)cc1)NC(=O)[C@@H](NC(=O)[C@H](CO)NC(=O)CNC(=O)[C@H](CO)NC(=O)[C@H](CCCN=C(N)N)NC(=O)[C@H](CCCCN)NC(=O)[C@@H](NC(=O)[C@@H](N)CCCN=C(N)N)[C@@H](C)O)C(C)C)C(=O)O [Malantide] (10 µM) | inactive: 0 | inactive: 0 | inactive: 0 | inactive: 0 | inactive: 0 | inactive: 0 | inactive: 0 | inactive: 0 | inactive: 0 | inactive: 0 |
| CNC[C@@H](NC(=O)c1ccc(-c2nc([C@H]3CC[C@H](O)[C@@H](F)C3)cnc2N)cc1F)c1cc(F)cc(Br)c1 [Rineterkib] (10 µM) | inactive: 0 | inactive: 0 | inactive: 0 | inactive: 0 | inactive: 0 | inactive: 0 | inactive: 0 | inactive: 0 | inactive: 0 | inactive: 0 |
| CC(=O)Nc1nc(C)c(-c2cc3c(c(S(C)(=O)=O)c2)C(=O)N([C@@H](C)C2CC2)C3)s1 (2.5 µM) | inactive: 0 | inactive: 0 | inactive: 0 | inactive: 0 | inactive: 0 | inactive: 0 | inactive: 0 | inactive: 0 | inactive: 0 | inactive: 0 |
| C=CC(=O)N[C@H]1CCOC[C@H]1Nc1ncc2cc(-c3c(Cl)c(OC)cc(OC)c3Cl)ccc2n1 [Fisogatinib] (10 µM) | inactive: 0 | inactive: 0 | inactive: 0 | inactive: 0 | inactive: 0 | inactive: 0 | inactive: 0 | inactive: 0 | inactive: 0 | inactive: 0 |
| CNS(=O)(=O)Nc1nccc(Cc2c(C)c3ccc(Oc4ncccn4)cc3oc2=O)c1F (10 µM) | inactive: 0 | inactive: 0 | inactive: 0 | inactive: 0 | inactive: 0 | inactive: 0 | inactive: 0 | inactive: 0 | inactive: 0 | inactive: 0 |
| Cc1nc(NC(=O)N2CCC[C@H]2C(N)=O)sc1-c1csc(C(C)(C)C)n1 (10 µM) | inactive: 0 | inactive: 0 | inactive: 0 | inactive: 0 | inactive: 0 | inactive: 0 | inactive: 0 | inactive: 0 | inactive: 0 | inactive: 0 |
| Clc1ccc(Nc2cccc(-c3cn[nH]c3)c2)cc1 (10 µM) | inactive: 0 | inactive: 0 | inactive: 0 | inactive: 0 | inactive: 0 | inactive: 0 | inactive: 0 | inactive: 0 | inactive: 0 | inactive: 0 |
| C=C[C@H]1[C@H](O[C@@H]2O[C@H](CO)[C@@H](O)[C@H](O)[C@H]2O)OC=C(C(=O)OC)[C@H]1CCOC(=O)c1cc(O)c(O)c(O)c1 [Cornuside] (10 µM) | inactive: 0 | inactive: 0 | inactive: 0 | inactive: 0 | inactive: 0 | inactive: 0 | inactive: 0 | inactive: 0 | inactive: 0 | inactive: 0 |
| COc1cc(OC)c(/C=C/S(=O)(=O)Cc2ccc(OC)c(NCC(=O)O)c2)c(OC)c1 [Rigosertib (sodium)] (10 µM) | inactive: 0 | inactive: 0 | inactive: 0 | inactive: 0 | inactive: 0 | inactive: 0 | inactive: 0 | inactive: 0 | inactive: 0 | inactive: 0 |
| COc1ccc(F)cc1C(=O)NCc1ccc(-c2nn([C@@H](C)C(F)(F)F)c(N)c2C(N)=O)cc1 [Pirtobrutinib] (10 µM) | inactive: 0 | inactive: 0 | inactive: 0 | inactive: 0 | inactive: 0 | inactive: 0 | inactive: 0 | inactive: 0 | inactive: 0 | inactive: 0 |
| C1=N/C2=N/c3ccc(OCCN4CCCC4)c(c3)COC/C=C/COCc3cccc(c3)C(=C1)N2 [Pacritinib] (2.5 µM) | inactive: 0 | inactive: 0 | inactive: 0 | inactive: 0 | inactive: 0 | inactive: 0 | inactive: 0 | inactive: 0 | inactive: 0 | inactive: 0 |
| Cn1sc(=O)n(Cc2ccccc2)c1=O (10 µM) | inactive: 0 | inactive: 0 | inactive: 0 | inactive: 0 | inactive: 0 | inactive: 0 | inactive: 0 | inactive: 0 | inactive: 0 | inactive: 0 |
| Cn1cc(C2=C(c3c4n(c5ccccc35)CCC(CN)C4)C(=O)NC2=O)c2ccccc21 (stereo not given) [Bisindolylmaleimide X (hydrochloride)] (2.5 µM) | inactive: 0 | inactive: 0 | inactive: 0 | inactive: 0 | inactive: 0 | inactive: 0 | inactive: 0 | inactive: 0 | inactive: 0 | inactive: 0 |
| C[C@@H]1CC[C@]2(C(=O)O)CC[C@]3(C)C(=CC[C@@H]4[C@@]5(C)CC[C@H](O)[C@@](C)(CO)[C@@H]5CC[C@]43C)[C@@H]2[C@]1(C)O [Rotundic acid] (10 µM) | inactive: 0 | inactive: 0 | inactive: 0 | inactive: 0 | inactive: 0 | inactive: 0 | inactive: 0 | inactive: 0 | inactive: 0 | inactive: 0 |
| OCCC#Cc1nc(-c2ccc(F)cc2)c(-c2ccncc2)n1CCCc1ccccc1 (2.5 µM) | inactive: 0 | inactive: 0 | inactive: 0 | inactive: 0 | inactive: 0 | inactive: 0 | inactive: 0 | inactive: 0 | inactive: 0 | inactive: 0 |

| Structure (SMILES) | kinase-Nluc reporter destabilization hit call (BRAF_V600E) | kinase-Nluc reporter destabilization hit call (BTK) | kinase-Nluc reporter destabilization hit call (CAMK2A) | kinase-Nluc reporter destabilization hit call (CAMK2G) | kinase-Nluc reporter destabilization hit call (CDK10) | kinase-Nluc reporter destabilization hit call (CDK2) | kinase-Nluc reporter destabilization hit call (CDK3) | kinase-Nluc reporter destabilization hit call (CDK4) | kinase-Nluc reporter destabilization hit call (CDK5) | kinase-Nluc reporter destabilization hit call (CDK6) |
| --- | --- | --- | --- | --- | --- | --- | --- | --- | --- | --- |
| Cc1cccc(-c2[nH]c(C(C)(C)C)nc2-c2ccc3c(c2)OCO3)n1 (2.5 µM) | inactive: 0 | inactive: 0 | inactive: 0 | inactive: 0 | inactive: 0 | inactive: 0 | inactive: 0 | inactive: 0 | inactive: 0 | inactive: 0 |
| CCC(=O)N1CC[C@H](Nc2ncnc3c2CN(c2cnc(OC)c(C(F)(F)F)c2)CC3)C1 [Leniolisib] (10 µM) | inactive: 0 | inactive: 0 | inactive: 0 | inactive: 0 | inactive: 0 | inactive: 0 | inactive: 0 | inactive: 0 | inactive: 0 | inactive: 0 |
| N#C/C(=C\c1ccc[nH]1)c1ccc(Cl)c(Cl)c1 (2.5 µM) | inactive: 0 | inactive: 0 | inactive: 0 | inactive: 0 | inactive: 0 | inactive: 0 | inactive: 0 | inactive: 0 | inactive: 0 | inactive: 0 |
| C=CC(=O)Nc1cc(C(=O)NC)cc(-c2n[nH]c3ccccc23)c1 (10 µM) | active: 1 | inactive: 0 | inactive: 0 | inactive: 0 | inactive: 0 | inactive: 0 | inactive: 0 | inactive: 0 | inactive: 0 | inactive: 0 |
| COc1cc2nccc(Oc3ccc(NC(=O)Nc4ccc(F)cc4F)c(F)c3)c2cc1OC (10 µM) | inactive: 0 | inactive: 0 | inactive: 0 | inactive: 0 | inactive: 0 | inactive: 0 | inactive: 0 | inactive: 0 | inactive: 0 | inactive: 0 |
| COc1ccc(C2CC(c3ccc(Cl)cc3)=NN2c2nc(-c3ccncc3)cs2)cc1 (stereo not given) [mTOR inhibitor-8] (10 µM) | inactive: 0 | inactive: 0 | inactive: 0 | inactive: 0 | inactive: 0 | inactive: 0 | inactive: 0 | inactive: 0 | inactive: 0 | inactive: 0 |
| Cc1cc(F)c(Nc2ncnc3cc(OCc4ccccc4)ccc23)cc1O (10 µM) | inactive: 0 | inactive: 0 | inactive: 0 | inactive: 0 | inactive: 0 | inactive: 0 | inactive: 0 | inactive: 0 | inactive: 0 | inactive: 0 |
| C[C@@]12CCc3occc3[C@H]1CC[C@@]13C[C@@H](CC[C@H]12)[C@@](O)(CO)C3 [Cafestol] (10 µM) | inactive: 0 | inactive: 0 | inactive: 0 | inactive: 0 | inactive: 0 | inactive: 0 | inactive: 0 | inactive: 0 | inactive: 0 | inactive: 0 |
| Cc1ccc(Nc2c(C(N)=O)cnc3cc(-c4ccncc4)ccc23)cc1C [cFMS Receptor Inhibitor II] (10 µM) | inactive: 0 | inactive: 0 | inactive: 0 | inactive: 0 | inactive: 0 | inactive: 0 | inactive: 0 | inactive: 0 | inactive: 0 | inactive: 0 |
| O=S(=O)(N=Cc1c(O)ccc2ccccc12)c1cccs1 (10 µM) | inactive: 0 | inactive: 0 | inactive: 0 | inactive: 0 | inactive: 0 | inactive: 0 | inactive: 0 | inactive: 0 | inactive: 0 | inactive: 0 |
| O=c1sn(-c2cccc3ccccc23)c(=O)n1Cc1ccccc1 [Tideglusib] (10 µM) | inactive: 0 | inactive: 0 | inactive: 0 | inactive: 0 | inactive: 0 | inactive: 0 | inactive: 0 | inactive: 0 | inactive: 0 | inactive: 0 |
| CS(=O)(=O)N1CCc2c(-c3cnc(N)nc3)nc(N3CCOCC3)nc21 (10 µM) | inactive: 0 | inactive: 0 | inactive: 0 | inactive: 0 | inactive: 0 | inactive: 0 | inactive: 0 | inactive: 0 | inactive: 0 | inactive: 0 |
| CS(=O)(=O)N1CCN(Cc2cn3cc(-c4cnc(N)nc4)nc(N4CCOCC4)c3n2)CC1 (10 µM) | inactive: 0 | inactive: 0 | inactive: 0 | inactive: 0 | inactive: 0 | inactive: 0 | inactive: 0 | inactive: 0 | inactive: 0 | inactive: 0 |
| CCn1c2ccccc2c2cc(Nc3ccnc(NCCCN4CCOCC4)n3)ccc21 (2.5 µM) | inactive: 0 | inactive: 0 | inactive: 0 | inactive: 0 | inactive: 0 | inactive: 0 | inactive: 0 | inactive: 0 | inactive: 0 | inactive: 0 |
| Cc1cccc(Cn2nc(C)c3c(NC(=O)c4csc5c(N)ncnc45)cccc32)n1 (10 µM) | inactive: 0 | inactive: 0 | inactive: 0 | inactive: 0 | inactive: 0 | inactive: 0 | inactive: 0 | inactive: 0 | inactive: 0 | inactive: 0 |
| CC(=O)NCC(=O)N[C@@H](C)C(=O)N[C@@H](CCC(N)=O)C(=O)N[C@@H](Cc1ccccc1)C(=O)N[C@@H](CO)C(=O)N[C@@H](CCCCN)C(=O)N[C@H](C(=O)N[C@@H](C)C(=O)N[C@@H](C)C(=O)N[C@@H](CCCCN)C(=O)O)[C@@H](C)O (10 µM) | inactive: 0 | inactive: 0 | inactive: 0 | inactive: 0 | inactive: 0 | inactive: 0 | inactive: 0 | inactive: 0 | inactive: 0 | inactive: 0 |

Structures from the list above that contain a CF3 group (2):

| Structure (SMILES) | kinase-Nluc reporter destabilization hit call (BRAF_V600E) | kinase-Nluc reporter destabilization hit call (BTK) | kinase-Nluc reporter destabilization hit call (CAMK2A) | kinase-Nluc reporter destabilization hit call (CAMK2G) | kinase-Nluc reporter destabilization hit call (CDK10) | kinase-Nluc reporter destabilization hit call (CDK2) | kinase-Nluc reporter destabilization hit call (CDK3) | kinase-Nluc reporter destabilization hit call (CDK4) | kinase-Nluc reporter destabilization hit call (CDK5) | kinase-Nluc reporter destabilization hit call (CDK6) |
| --- | --- | --- | --- | --- | --- | --- | --- | --- | --- | --- |
| COc1ccc(F)cc1C(=O)NCc1ccc(-c2nn([C@@H](C)C(F)(F)F)c(N)c2C(N)=O)cc1 [Pirtobrutinib] (10 µM) | inactive: 0 | inactive: 0 | inactive: 0 | inactive: 0 | inactive: 0 | inactive: 0 | inactive: 0 | inactive: 0 | inactive: 0 | inactive: 0 |
| CCC(=O)N1CC[C@H](Nc2ncnc3c2CN(c2cnc(OC)c(C(F)(F)F)c2)CC3)C1 [Leniolisib] (10 µM) | inactive: 0 | inactive: 0 | inactive: 0 | inactive: 0 | inactive: 0 | inactive: 0 | inactive: 0 | inactive: 0 | inactive: 0 | inactive: 0 |

Source: the supplement of paper PMC12823440, “Inhibitors supercharge kinase turnover through native proteolytic circuits” (Nature, 2025)
